Test results: PubChem BioAssay AID1956 (SRMLSC, 2009)
This is one part of the list.

test: enhancers of HSV replication in host cells, fold increase, host cell viability (AID 1956); settings: HSV replication augmentation in cells; fold increase: measured here: primary screen fold increase 10 uM, at 10 µM, stronger effect = higher value; viability: measured here: host cell viability series, at 25 µM, stronger effect = lower value; note: tested in PC3 cells

Compound	fold increase	viability [%]
O=C(OC1CN2CCC1CC2)C1c2ccccc2C=Cc2ccccc21 (stereo unspecified)	0.8	
COc1ccc(C(=O)NCC2(N3CCOCC3)CCCCC2)cc1OC	1.02	
c1ccc(CN2CCC(Nc3ccccc3)CC2)cc1	0.91	
N#Cc1ccc(C(=O)NCC2(N3CCCCC3)CCCCC2)cc1	0.82	
CCN1CCC(Nc2cccc(F)c2)CC1	1.04	
CN(C)c1ccc(C(=O)NCC2(N3CCCCC3)CCCCC2)cc1	0.92	
Fc1ccccc1NC1CCN(Cc2ccccc2)CC1	0.87	
COc1cc(OC)cc(C(=O)NCC2(N3CCOCC3)CCCCC2)c1	1.01	
CCC(CO)(C(=O)OC1CN2CCC1CC2)c1ccccc1 (stereo unspecified)	1	
CCCOc1ccc(C)cc1CN(CCCl)CCCl	1.04	
CCOc1ncccc1C(=O)NCC1(N2CCOCC2)CCCCC1	1.42	95.6
CC(C)(C)OC(=O)N1CCC(Nc2ccccc2)CC1	1.02	
O=C(NCC1(N2CCOCC2)CCCCC1)c1cc2ccccc2o1	0.913	
N#CC1(Nc2ccccc2)CCN(Cc2ccccc2)CC1	0.97	
O=C(OC1CN2CCC1CC2)C1c2ccccc2Oc2ccccc21 (stereo unspecified)	1.1	
CCOC(=O)N1CCC(Nc2ccc(OC)cc2)CC1	1.01	
COc1ccc(C(=O)NCC2(N3CCCCC3)CCCCC2)c(OC)c1OC	0.94	
Cc1ccc(OCC(C)C)c(CN(CCCl)CCCl)c1	1.02	
CCOc1ccc(C)cc1CN(CCCl)CCCl	1.13	
COc1ccc(NC2CCN(CCc3ccccc3)CC2)c(OC)c1	0.73	
O=C(NCC1(N2CCOCC2)CCCCC1)c1cc(=O)[nH]c2ccccc12	0.98	
COc1ccc(NC2CCN(C(=O)OC(C)(C)C)CC2)cc1	0.97	
CN1CCN(CCOC(=O)C(O)(c2ccccc2)c2ccccc2)CC1	0.9	
N#CC1(Nc2ccccc2)CCN(CCc2ccccc2)CC1	0.98	
O=C(NCC1(N2CCCCC2)CCCCC1)c1cccc([N+](=O)[O-])c1	1.5	75.3
CN1CCC(Nc2cccc(F)c2)CC1	1.08	
CC(C)c1ccc(NC2CCN(C(=O)OC(C)(C)C)CC2)cc1	0.91	
CN(C)c1cccc(C(=O)NCC2(N3CCCCC3)CCCCC2)c1	0.97	
COc1ccc(CN(CCCl)CCCl)cc1Cl	0.84	
